Results deposited as PubChem BioAssay AID1259425 (University of Nebraska Medical Center, 2018).
Shown is a random part of about 14,000 reagents. Further read-outs or replicates are left out here. Not stated in the record: the time to read-out.

Test: 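Seek colon cancer weak points whose silencing resembles KSR1 loss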 (primary screen)
Cell system: HCT116 human colon cancer cells
Knock-down reagent: siRNA pool against human genes, 50 nM siRNA
Measured: 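mRNA of six signature genes measured together by branched-DNA assay after 50 nM siRNA pool, blank removed, divided by geometric mean of two housekeeping genes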
Direction: BNIP3L mRNA: higher = more BNIP3L transcript after knockdown

Against DSG3 (GeneID 1830) [SID363993157] the deposit lists BNIP3L mRNA, set 1 = 0.0867.
Against PKP3 (GeneID 11187) [SID363997883], the values are BNIP3L mRNA, set 1 = 0.131.
Silencing of ELP3 (GeneID 55140) [SID364000773] resulted in: BNIP3L mRNA, set 1 = 0.159.
Against KERA (GeneID 11081) [SID363997766], the entry reads BNIP3L mRNA, set 1 = 0.0703.
After knock-down of CD53 (GeneID 963) [SID363991882], the record shows BNIP3L mRNA, set 1 = 0.0847.
Knock-down of UNC13B (GeneID 10497) [SID363997192] came out at: BNIP3L mRNA, set 1 = 0.101.
TOX3 (GeneID 27324) [SID364005215] showed BNIP3L mRNA, set 1 = 0.0823.
With knock-down of ENOX2 (GeneID 10495) [SID363997191], the screen gave BNIP3L mRNA, set 1 = 0.151.
Knock-down of UBE2V1 (GeneID 7335) [SID364002271] came out at: BNIP3L mRNA, set 1 = 0.101.
After knock-down of CREB5 (GeneID 9586) [SID363995852], the record shows BNIP3L mRNA, set 1 = 0.04.
PCDHB4 (GeneID 56131) [SID364001265] showed BNIP3L mRNA, set 1 = 0.174.
Depletion of SAV1 (GeneID 60485) [SID364002198] resulted in: BNIP3L mRNA, set 1 = 0.0592.
Against SLC39A7 (GeneID 7922) [SID363997715] the deposit lists BNIP3L mRNA, set 1 = 0.288.
LTN1 (GeneID 26046) [SID363999575] showed BNIP3L mRNA, set 1 = 0.154.
TXNRD2 (GeneID 10587) [SID363997250] showed BNIP3L mRNA, set 1 = 0.0587.
Against PSENEN (GeneID 55851) [SID364004814] the deposit lists BNIP3L mRNA, set 1 = 0.159.
For KMT2B (GeneID 9757) [SID363999061] the deposit lists BNIP3L mRNA, set 1 = 0.0531.
RCC1L (GeneID 81554) [SID364003450] showed BNIP3L mRNA, set 1 = 0.209.
Silencing of RPL35A (GeneID 6165) [SID363992279] resulted in: BNIP3L mRNA, set 1 = 0.379.
For HCP5 (GeneID 10866) [SID363997459], the values are BNIP3L mRNA, set 1 = 0.103.
For NOP10 (GeneID 55505) [SID364001147], the values are BNIP3L mRNA, set 1 = 0.233.
Against ZNF267 (GeneID 10308) [SID363994522] the deposit lists BNIP3L mRNA, set 1 = 0.121.
MAPK6 (GeneID 5597) [SID363993906] scored BNIP3L mRNA, set 1 = 0.079.
TM4SF4 (GeneID 7104) [SID363995585] scored BNIP3L mRNA, set 1 = 0.122.
Against IMPDH1 (GeneID 3614) [SID363992169] the deposit lists BNIP3L mRNA, set 1 = 0.0872.
Depletion of ZNF280C (GeneID 55609) [SID364000432] came out at: BNIP3L mRNA, set 1 = 0.156.
Against PRDX3 (GeneID 10935) [SID363997561] the deposit lists BNIP3L mRNA, set 1 = 0.11.
Depletion of PRR34 (GeneID 55267) [SID364000938] resulted in: BNIP3L mRNA, set 1 = 0.0267.

Entries listed so far whose gene name starts with U or u:
UNC13B (GeneID 10497) [SID363997192] | BNIP3L mRNA, set 1 = 0.101
UBE2V1 (GeneID 7335) [SID364002271] | BNIP3L mRNA, set 1 = 0.101
